PubChem BioAssay AID1224830, NIAID – 2016
In all, the deposit lists about 18,000 reagents; below is a part drawn at random. In the full data, about 2,900 (16%) are marked active. 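Calls are made per well; low scores hint the gene aids the LPS response, high scores that it dampens it.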 A number with no mark means an inactive call. Reagents against one gene are numbered here. Repeated entries: four replicate wells of each siRNA pool.

Screen: 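Host factors that control LPS-induced TNF expression in human macrophages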 (primary screen)
Cells: human THP-1 monocytic leukaemia cells, TNF dual-luciferase reporter clone, PMA-differentiated to macrophage-like cells
Knock-down reagent: siRNA pool against human genes, 50 nM
Timing: LPS for 4 h, given about 3 days after siRNA transfection
Conditions: bacterial LPS (TLR4 ligand), 10 ng/ml
Measurement: 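Ratio of firefly to renilla light, scaled to the plate median and expressed as a robust z-score per replicate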
Scale: TNF reporter robust z-score: higher = stronger TNF reporter response to LPS
Hit rule: 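Each well counts as active if its z-score is over 2.8 or under -1.5; controls are left without a call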

TNF reporter robust z-score, by gene and reagent
SFPQ: #1 -1.43; #1 -0.67; #1 -1.12; #1 -1.13
PTH2: #1 1.52; #1 1.95; #1 1.27; #1 2.58
CEP97: #1 -0.38; #1 -0.06; #1 -0.29; #1 -0.92
LRP5: #1 -0.51; #1 -0.04; #1 -1.06; #1 0.01
IFT43: #1 1.01; #1 2.79; #1 1.14; #1 1.44
RNF180: #1 0.16; #1 0.26; #1 -1.36; #1 -0.23
E2F6: #1 0.18; #1 0.28; #1 -0.18; #1 0.31
SLC2A11: #1 2.03; #1 3.36 (active); #1 1.17; #1 1.53
DLG1: #1 1.2; #1 1.58; #1 1.1; #1 2.76; #1 -0.62; #1 -1.08; #1 -0.45; #1 -0.18
TAF1: #1 -0.94; #1 -1.34; #1 -0.86
USP40: #1 0.47; #1 1.31; #1 1; #1 0.58
TNFSF14: #1 1.4; #1 1.17; #1 1.54; #1 2.13
GAL3ST3: #1 -0.79; #1 -0.5; #1 -0.1; #1 0.11
CAPNS2: #1 -1.2; #1 -0.66; #1 -0.73; #1 -0.32
ZNF232: #1 1.35; #1 2.03; #1 2; #1 1.25
C5orf24: #1 -0.46; #1 0.15; #1 0.03; #1 0.28
PNMA5: #1 -0.44; #1 -0.38; #1 -0.79; #1 -0.75
G2E3: #1 -0.73; #1 1.78; #1 -1.57 (active); #1 3.41 (active)
SLC29A2: #1 -0.86; #1 0.47; #1 -0.14; #1 -0.33
EPC1: #1 -1.13; #1 -0.29; #1 -0.17; #1 -0.06
SUCO: #1 -1.24; #1 -1.1; #1 -0.38; #1 -1.5
PLXNA3: #1 -2.59 (active); #1 -0.34; #1 0.25; #1 0.82
ABCC10: #1 -0.95; #1 -1.19; #1 -1.38; #1 -1.12
CTNNAL1: #1 4.81 (active); #1 0.27; #1 0.24; #1 -0.44
CTAG2: #1 -0.75; #1 -0.74; #1 -1.08; #1 1.61
PSMD3: #1 -1.27; #1 -1.47; #1 -1.53 (active); #1 -1.32
KRT10: #1 0.04; #1 -0.46; #1 -0.12; #1 0.98
SOCS3: #1 0.24; #1 -0.04; #1 0.05; #1 5.01 (active)
ELMOD1: #1 -1; #1 -1.33; #1 -1.28; #1 -1.03; #2 -0.94; #2 -0.56; #2 -0.55; #2 -0.02
KDM4D: #1 0.68; #1 1.35; #1 0.64; #1 1.52
THBS1: #1 2.05; #1 2.28; #1 1.98; #1 1.74
NPPA: #1 0.03; #1 3.26 (active); #1 0.09; #1 0.39
GML: #1 -1.12; #1 0.21; #1 -0.3; #1 -0.14
DEFB105B: #1 -0.23; #1 -0.57; #1 -0.28; #1 0.12

Records above with an active call:
TNF reporter robust z-score, by gene and reagent
SLC2A11: #1 3.36 (active)
G2E3: #1 -1.57 (active); #1 3.41 (active)
PLXNA3: #1 -2.59 (active)
CTNNAL1: #1 4.81 (active)
PSMD3: #1 -1.53 (active)
SOCS3: #1 5.01 (active)
NPPA: #1 3.26 (active)
